Experimental data reported in patent US6635743.
No constants are given. Whether binding was seen depends on the method and setting. Some results given as binding are weak or reduced against the parent protein; the word gives no strength.

Sequences of proteins named here, by UniProt entry; tags and fusion partners are left off. Residues count along the entry.
UniProt Q9QYH9: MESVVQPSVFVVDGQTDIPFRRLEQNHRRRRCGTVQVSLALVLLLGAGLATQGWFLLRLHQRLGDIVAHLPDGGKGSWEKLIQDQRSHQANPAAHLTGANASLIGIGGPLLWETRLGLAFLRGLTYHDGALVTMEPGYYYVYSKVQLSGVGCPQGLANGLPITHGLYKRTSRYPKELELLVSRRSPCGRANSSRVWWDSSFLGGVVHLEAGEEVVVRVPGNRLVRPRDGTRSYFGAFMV
UniProt P50284, residues 31-223: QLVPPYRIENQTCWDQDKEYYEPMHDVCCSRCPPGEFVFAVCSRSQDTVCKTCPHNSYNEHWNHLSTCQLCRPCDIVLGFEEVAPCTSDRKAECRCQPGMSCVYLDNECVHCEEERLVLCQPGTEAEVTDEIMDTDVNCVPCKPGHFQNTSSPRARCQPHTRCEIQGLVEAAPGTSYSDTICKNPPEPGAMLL

Biological target: mouse AIM II (LIGHT) expressed on cells (mouse) (UniProt Q9QYH9)
Experiment: flow cytometry on 293 cells transfected with pmAIM II, FITC anti-human IgG

mouse LTβR-Ig fusion protein (from UniProt P50284 31-223) (Fc fusion)
binding: binds
